This test in a line: qHTS Assay to Find Inhibitors of Chronic Active B-Cell Receptor Signaling. To be noted: ABC-DLBCL IkBa-CBG/CBR reporter, luminescence ratio (green luciferase fused to IkBa over red control in TMD8 lymphoma cells), 4 h. Summed up: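 Doxycycline induced both beetle luciferases in TMD8 lymphoma cells; IKK-driven degradation limits the IkappaBalpha-fused green signal, while red luminescence normalises for cell number and nonspecific effects. Compounds tested up to 46 uM, 4 hrs.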
(Quantitative high-throughput screening tests each substance at several concentrations.)

[1] abbreviates: measured here: CBR red luminescence, cell number.

By AC50 is commonly meant the concentration giving half of the maximal activity seen.

Some of the results follow. Further columns of the screen follow, without active or inactive calls. Compounds called inactive in the main read-out are mostly missing here. The note in brackets gives the kind of curve behind each potency; many fits are weak.

Take `C=CCc1cc2c(oc(=O)c3ccccc32)c(C)c1O`: the AC50 under setting [1] is 35.5 µM [rising, single point]. On the same count and under the same terms, with `Cc1csc(NC(=O)Nc2ccccc2[N+](=O)[O-])n1` the figure was 11.2 µM [falling, partial curve, poor fit].

On to `COc1ccc(NC(=O)CN(C)CC(=O)c2c(C)[nH]c3ccccc23)cc1`, for which the AC50 under setting [1] is 16.4 µM [falling, partial curve, poor fit]. For the molecule `Cc1c(C(=O)Nc2ccccc2F)sc2nc3n(c(=O)c12)CCC3`, under setting [1], the AC50 was 2.51 µM [falling, full curve, poor fit]. `COc1cccc(NC(=O)CSc2nnc(-c3ccoc3C)n2CC2CCCO2)c1` (configuration not stated): the AC50 under setting [1] is 35.5 µM [falling, single point]. Take `Cc1nn(Cc2ccccc2)c(C)c1/C=N/NC(=O)c1ccccc1O`: the AC50 under setting [1] is 22.4 µM [falling, single point].

As to `CCCN(CCC)S(=O)(=O)c1ccc(C(=O)N2CCCc3ccccc32)cc1`, the AC50 under setting [1] was 32.6 µM [falling, single point]. With `Cc1nn(C(=O)c2ccco2)c(C)c1Sc1ccc(Cl)cc1`, under setting [1], the AC50 was 5.8 µM [falling, full curve]. Regarding `COc1ccc(N(C)S(=O)(=O)c2cccc(C(=O)NC3CCC(C)CC3)c2)cc1` (configuration not stated), under setting [1], the AC50 is 1.26 µM [rising, partial curve]. Still for that read-out and setting: with `O=C(Nc1ccc(Br)cc1)c1cc(S(=O)(=O)N2CCc3ccccc32)ccc1F` the figure was 2.51 µM [falling, full curve]; with `C[C@H](CO)N1C[C@H](C)[C@@H](CN(C)C(=O)Nc2ccc(C(F)(F)F)cc2)Oc2ccc(NC(=O)C3CC3)cc2C1=O`, 29.1 µM [rising, single point]. `COc1ccc(-n2c3c(cc(C(=O)NCC(=O)c4ccccc4)c2=O)C(=O)CC(C)(C)C3)cc1`: the AC50 under setting [1] was 1.26 µM [rising, full curve, poor fit]. For the molecule `COc1ccc(-c2nc(-c3ccccc3)no2)c(OC)c1`, the AC50 under setting [1] was 2.06 µM [falling, full curve]. For `FC(F)(F)c1cccc(-c2nc(-c3ccncc3)no2)c1`, the AC50 under setting [1] was 8.91 µM [rising, partial curve, poor fit]. With `CCn1c2ccccc2c2cc(CNCc3ccc(OC)cc3OC)ccc21`, the AC50 under setting [1] is 22.4 µM [falling, single point]. In the case of `COc1cc(OC)cc(C(=O)NC(=S)Nc2cccnc2)c1`, the AC50 under setting [1] is 2.82 µM [falling, full curve]. On to `CCn1c(C(C)NC(=O)c2ccc(Cl)cc2)n[nH]c1=S` (configuration not stated), for which the AC50 under setting [1] was 7.94 µM [rising, partial curve, poor fit].

Turning to `COc1ccc2nc(NCCCNC(=O)c3cc(OC)c(OC)c(OC)c3)c(C#N)cc2c1`, the AC50 under setting [1] is 15.8 µM [rising, partial curve, poor fit]. In the case of `O=C(N/N=C/C(Br)=C/c1ccccc1)c1cnccn1`, the AC50 under setting [1] was 31.6 µM [falling, single point]. In the case of `CCCCOC(=O)c1ccc(NC(=S)NC(=O)c2c(Cl)cnn2C)cc1`, under setting [1], the AC50 was 6.31 µM [falling, partial curve, poor fit]. With `Cc1ccc(Cn2ncc3c(N4CCN(c5ccccc5C)CC4)ncnc32)cc1`, the AC50 by setting is: under setting [1], 6.51 µM [falling, single point]; (measured here: IkBa-CBG green luminescence) 6.51 µM [rising, partial curve, poor fit]. For the molecule `CC(Nc1[nH]c(=O)n(C)c(=O)c1N=O)c1ccccc1` (configuration not stated), under setting [1], the AC50 was 3.98 µM [falling, partial curve, poor fit].

In the case of `COc1cccc(C(=O)NNC(=S)NC2CCCCC2)c1`, the AC50 under setting [1] was 0.651 µM [falling, partial curve, poor fit]. For the molecule `CC(=O)Nc1nnc(/C=C/c2cccc([N+](=O)[O-])c2)s1`, the AC50 under setting [1] was 0.0891 µM [rising, full curve, poor fit].

With `COc1ccc(C(=O)N(CN2CCCC2=O)c2ccc(C)cc2)cc1`, the AC50 under setting [1] was 14.1 µM [falling, single point]. In the case of `NCc1cc2c3c(c1)CCCN3CCC2`, the AC50 under setting [1] is 2.24 µM [rising, partial curve, poor fit]. For `O=C(COc1cccnc1[N+](=O)[O-])Nc1ccc2c(c1)CCC2`, the AC50 under setting [1] was 2.82 µM [rising, full curve]. On to `C=CCC[C@@H](Cc1ccc(F)cc1)C(=O)OC[C@@H](NC(=O)[C@@H](CC=C)CC(=O)N(CCO)Cc1ccccc1)c1ccccc1`, for which the AC50 under setting [1] is 20.6 µM [falling, single point]. Consider `CC1CCCC(NC(=O)COC(=O)c2ccccc2[N+](=O)[O-])C1C` (configuration not stated), for which the AC50 under setting [1] was 25.1 µM [falling, single point]. Consider `CCCCS/C(=C(/C#N)C(N)=O)c1cc2c([nH]1)CCCC2`, for which the AC50 under setting [1] was 12.6 µM [falling, partial curve, poor fit]. On to `COc1ccc(NC(=O)NC2CCCCC2C)cc1` (configuration not stated), for which the concentration at half-maximal activity (AC50) under setting [1] is 12.6 µM [falling, partial curve, poor fit]. In the case of `COc1ccc(-c2ccc3oc(-c4ccsc4)cc(=O)c3c2)cn1`, the AC50 under setting [1] was 1.3 µM [rising, partial curve]. In the case of `CCCN1CCc2c(sc(NC(=S)NC(=O)c3ccccc3)c2C#N)C1`, the AC50 under setting [1] is 3.16 µM [falling, partial curve]. Take `CCC(=O)Nc1ccc(NC(=O)c2ccccn2)cn1`: the AC50 under setting [1] is 8.2 µM [falling, partial curve]. Take `O=S(=O)(NCC(c1ccco1)N1CCN(c2ccc(F)cc2)CC1)c1cc(F)ccc1F` (configuration not stated): under setting [1], the AC50 was 0.355 µM [falling, full curve]. The same measure, in the same setting: next, `COc1ccc(CN(CCC(c2ccccc2)c2ccco2)C(=O)c2ccco2)cc1` (configuration not stated): 16.4 µM [falling, single point]; `CN(C)S(=O)(=O)c1cccc(C(=O)OCC(=O)Nc2sccc2C(N)=O)c1`: 7.94 µM [falling, partial curve]. `CCOc1c(N2CCCCC2)c(=O)c1=O`: the AC50 under setting [1] is 0.794 µM [rising, full curve, poor fit]. For `COc1ccc(-c2cc(C(=O)Nc3c(C)nn(Cc4ccccc4)c3C)no2)cc1`, under setting [1], the AC50 is 16.4 µM [rising, partial curve]. As to `COc1cccc(NC(=O)CN(C)C(=O)Cc2ccc3c(c2)CCC3)c1`, the AC50 under setting [1] is 25.9 µM [rising, single point].

For `CCS(=O)(=O)NCCc1cc2cc(C)c(C)cc2[nH]c1=O`, the AC50 under setting [1] was 5.62 µM [rising, single point].

The record behind these values is PubChem BioAssay AID493014 (National Center for Advancing Translational Sciences (NCATS), 2011).
